This is a selection; strong and weak results do not stand in their true shares. Activity calls are given as the source filed them.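 How the source made its calls: active means inhibition above the batch mean plus 3 SD, and confirmed as a hit on visual image review (cut at about 43% in these data); inconclusive means passes the inhibition cutoff but fails visual image review; inactive means the rest.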

The nature of this assay: E-selectin induction blockers in HUVEC – imaging, immunofluorescence, high content, primary screen (AID 1246).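 Further: 0% = TNF-stimulated DMSO wells and 100% = unstimulated control wells.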 The following applies: HUVEC TNFa-induced E-selectin immunofluorescence, at 2 µM, hits give high values.
For `CN[C@H]1C[C@H]2O[C@@](C)([C@H]1OC)n1c3ccccc3c3c4c(c5c6ccccc6n2c5c31)C(=O)NC4`, the inhibition is active: 98.7%.

In general, inhibition refers to how much of the control response was suppressed.

Source of the values: PubChem BioAssay AID1246 (Columbia University Molecular Screening Center, 2008).
